Laboratory results taken from PubChem BioAssay AID540276 (National Center for Advancing Translational Sciences (NCATS), 2011).
About 5,400 (1.8%) of roughly 300,000 compounds were called active. The inconclusive results got no clear call from the source; some entries with a clear call stand among them for comparison. Calls come from the whole dose curve; tested in HEK293 cells. Potencies of inconclusive entries are doubtful fits and often do not repeat.

Assay: qHTS for inhibitors of binding or entry into cells for Marburg Virus
Settings: Marburg virus pseudotyped entry inhibition, cell reporter; activity change, negative = inhibition: at 37.8 µM (top of the series) unless noted
% is set by controls: 0 for no effect and ±100 for the full control effect; potency is the fitted concentration of half-maximal effect.

Row | Compound | activity change, negative = inhibition | Potency
1 | Cc1cccc(-c2nc3cc(NC(=O)COc4ccccc4F)ccc3o2)c1 | inactive: -2.48% [at 46.1 µM] | 
2 | COc1ccc2c(Cl)c(C(=O)N/N=C/c3ccc4c(c3)OCO4)sc2c1 |  | inconclusive: 12.6 µM [inhibitor, partial curve]
3 | CC(C)(C)c1ccc(CS(=O)CC(O)CO)cc1 (configuration not stated) |  | inconclusive: 0.116 µM [activator, single point]
4 | COc1cccc(NC(=O)CSc2ncnc3c2cnn3Cc2ccccc2)c1 | inactive: -12.8% | 
5 | CC(C)C(C(=O)O)N1C(=O)/C(=C/c2cccn2C)SC1=S (configuration not stated) | inactive: 11.5% | 
6 | CC1CCC(NC(=O)C2c3ccccc3C(=O)N2Cc2ccc3c(c2)OCO3)CC1 (configuration not stated) |  | inconclusive: 20 µM [inhibitor, single point]
7 | CCc1ccc(NC(=O)CN2C(C(=O)OC)=C(c3ccccc3)c3ccccc3S2(=O)=O)cc1 |  | inconclusive: 0.501 µM [inhibitor, full curve, poor fit]
8 | COc1cc2c(cc1OC)C(c1cccc([N+](=O)[O-])c1)NC(=O)C2 (configuration not stated) |  | inconclusive: 5.01 µM [activator, partial curve, poor fit]
9 | CC(=O)OC[C@@H]1O[C@H](CCO/N=C(\C)CCN2CCc3nc(-c4ccccc4)c(-c4ccccc4)cc3C2)C=C[C@@H]1OC(C)=O |  | inconclusive: 4.73 µM [inhibitor, single point]
10 | COCCNC(=O)CSc1nc(-c2ccc(C)cc2)[nH]c1-c1ccc(OC)cc1 | inactive: -20.4% [at 46.1 µM] | 
11 | Cc1cccc(-n2nc3c(c2NC(=O)c2ccc(Br)o2)CSC3)c1C |  | inconclusive: 2.91 µM [inhibitor, single point]
12 | Cc1cccc(OCCC(=O)NCC(=O)Nc2c(C)cccc2C)c1 |  | inconclusive: 3.16 µM [inhibitor, single point]
13 | Cc1cccc(NC(=S)N(CCN(C)C)Cc2cc3cccc(C)c3[nH]c2=O)c1 |  | inconclusive: 35.5 µM [inhibitor, single point]
14 | COc1ccc(C(=O)OCc2ccccc2F)cc1S(=O)(=O)N1CCCC1 |  | inconclusive: 17.8 µM [inhibitor, single point]
15 | Cc1ccc(SCC(=O)c2c(C)nc3ccccn23)cc1 |  | inconclusive: 35.5 µM [inhibitor, single point]
16 | Cn1c(N/N=C/c2cccs2)cc(=O)n(C)c1=O | inactive: -5.5% | 
17 | O=C(NCCc1c[nH]c2ccccc12)c1cnccn1 |  | inconclusive: 1.78 µM [activator, full curve]
18 | Cc1ccc2c(CC(=O)N(CC3CCCO3)c3c(N)n(Cc4ccccc4)c(=O)[nH]c3=O)coc2c1 (configuration not stated) |  | inconclusive: 35.5 µM [inhibitor, partial curve, poor fit]
19 | O=C(Nc1cccc(Cl)c1Cl)c1ccccc1NC(=O)C1CC=CCC1C(=O)O (configuration not stated) | inactive: -14.1% [at 46.1 µM] | 
20 | COc1ccc(CNC(=O)CNS(=O)(=O)c2ccc(Cl)cc2)cc1 |  | inconclusive: 1.26 µM [inhibitor, single point]
21 | CC(/C=C1\SC(=O)N(CC(=O)Nc2cccc(O)c2)C1=O)=C\c1ccccc1 | inactive: 11.7% | 
22 | Cc1ccc(NC(=O)C2=C(C(=O)O)CCCC2)cc1F | inactive: 10.5% [at 46.1 µM] | 
23 | Cc1ccc(C(=O)Nc2ccc(CC(=O)O)cc2)o1 | inactive: -11.3% | 
24 | CC(C)=CC(=O)N1CC[C@@H](N2CCN(c3ccccc3F)CC2)[C@H](O)C1 |  | inconclusive: 22.4 µM [activator, single point]

Row | Compound | activity change, negative = inhibition | Potency
25 | Cc1ccc(-c2csc3ncnc(N4CCN(C(=O)c5ccccc5)CC4)c23)cc1 |  | inconclusive: 15.8 µM [inhibitor, single point]
26 | OC(c1ccccc1)c1nc2ccccc2n1Cc1c(F)cccc1Cl (configuration not stated) | inactive: 2.14% [at 46.1 µM] | 
27 | O=C(NCCc1ccccc1)c1ccc2c(c1)CCN2S(=O)(=O)c1ccc(Cl)cc1 |  | inconclusive: 22.4 µM [inhibitor, single point]
28 | Cc1ccc(S(=O)(=O)Nc2ccccc2N2CCOCC2)cc1 |  | inconclusive: 3.98 µM [inhibitor, full curve, poor fit]
29 | Cc1c(/C=N/n2cnnc2)c2ccccc2n1C | inactive: 7.45% | 
30 | COc1ccc(CCC(=O)N/N=C/c2ccc3c(c2)OCO3)cc1 | inactive: 8.39% | 
31 | Cc1ccc(S(=O)(=O)NCC(c2ccco2)N2CCc3ccccc3C2)cc1 (configuration not stated) |  | inconclusive: 31.6 µM [inhibitor, single point]
32 | S=C(NCc1ccccc1)NNc1nc2ccccc2[nH]1 |  | inconclusive: 35.5 µM [inhibitor, single point]
33 | Cc1cc(NC(=O)c2cc(-c3ccc(F)cc3)on2)nn1Cc1ccc(Cl)cc1 | inactive: 17% [at 46.1 µM] | 
34 | O=C(CSc1nnc(-c2cccs2)o1)Nc1cccc(S(=O)(=O)N2CCCCC2)c1 | inactive: 15.4% | 
35 | Cn1nnc2cc(C(=O)Nc3ccc4ccccc4c3)ccc21 | inactive: -15.4% [at 46.1 µM] | 
36 | C=CCOC(=O)[C@H](C#N)c1nc2ccccc2nc1N1CCC(C(=O)OCC)CC1 | inactive: -3.62% | 
37 | CC1CCCCC1NC(=O)c1cc2c(s1)CS(=O)(=O)C2 (configuration not stated) | inactive: 15.1% | 
38 | Oc1cc2c(cc1CN1CCN(c3ncccn3)CC1)OCO2 | inactive: 2.54% [at 46.1 µM] | 
39 | COc1ccccc1CNc1ncnc2c1nc1n2CCCC1 |  | inconclusive: 17.8 µM [inhibitor, partial curve, poor fit]
40 | Cc1ccc(SC(CC(=O)c2ccc(F)cc2)C(=O)O)cc1 (configuration not stated) |  | inconclusive: 35.5 µM [inhibitor, single point]
41 | Cc1c(NC(=O)C2CCCNC2=O)c(=O)n(-c2ccccc2)n1C (configuration not stated) |  | inconclusive: 5.62 µM [inhibitor, single point]
42 | O=C(Cn1ncc2c3ccccc3n(Cc3ccccc3)c2c1=O)NCCCN1CCCCC1 |  | inconclusive: 35.5 µM [inhibitor, single point]
43 | O=C(Nc1ccc(Cl)cc1)c1ccsn1 |  | inconclusive: 0.224 µM [activator, full curve, poor fit]
44 | COc1cccc(N2C(=O)[C@H]3C(C(=O)c4cnccn4)=NN[C@H]3C2=O)c1 | inactive: -4.52% [at 46.1 µM] | 
45 | Cc1ccc(C(=O)/C=C\C(=O)c2ccc(C)cc2)cc1 | inactive: 25.6% | 
46 | O=C(c1ccco1)N1CCN(C(=O)C23CC4CC(CC(C4)C2)C3)CC1 |  | inconclusive: 20 µM [activator, single point]
47 | CCc1noc(C)c1C(=O)Oc1ccc(N(C)S(=O)(=O)c2ccccc2)cc1 |  | inconclusive: 12.6 µM [inhibitor, single point]

2 compounds picked at random from the list so far:
Row | Compound | activity change, negative = inhibition | Potency
35 | Cn1nnc2cc(C(=O)Nc3ccc4ccccc4c3)ccc21 | inactive: -15.4% [at 46.1 µM] | 
26 | OC(c1ccccc1)c1nc2ccccc2n1Cc1c(F)cccc1Cl (configuration not stated) | inactive: 2.14% [at 46.1 µM] | 
